Source: patent US5135947A, “1-phenyl-3-naphthalenyloxypropanamines and their use as selective serotonin reuptake inhibitors” (Eli Lilly and Company, priority 1990, dated 1992)
Counter-ions that a name gives are not always drawn. At least one structure is not confirmed: it was looked up by name or label, or the drawing left a doubt.

Tested on: 5HT uptake
Assay: Inhibition of 5HT uptake in vitro (synaptosomal uptake of 3H-serotonin, rat cortical synaptosomes)
Type: biochemical, rat (male Sprague-Dawley)
Conditions: 50 nM 3H-5HT, 37° C., 5 min
Procedure: This general procedure is set forth by Wong et al., in Drug Development Research 6:397-403 (1985).
Male Sprague-Dawley rats (110-150 g) from Harlan Industries (Cumberland, Ind.) were fed Purina Chow ad libitum for at least 3 days before being used in the studies. Rats were killed by decapitation. Whole brains were removed and dissected. Cerebral cortex was homogenized in 9 volumes of a medium containing 0.32M sucrose and 10 mM glucose. Crude synaptosomal preparations were isolated after differential centrifugation at 1,000 g for 10 min. and 17,000 g for 28 min. The final pellets were suspended in the same medium and kept in ice until use within the same day.
Synaptosomal uptake of ^3 H-serotonin(^3 H-5-hydroxytryptamine, ^3 H-5HT) was determined as follows. Cortical synaptosomes (equivalent to 1 mg of protein) were incubated at 37° C. for 5 min in 1 ml of Krebs-bicarbonate medium containing also 10 mM glucose, 0.1 mM iproniazid, 1 mM ascorbic acid, 0.17 mM EDTA and 50 nM ^3 H-5HT The reaction mixture was immediately diluted with 2 ml of ice-chilled Krebs-bicarbonatebuffer and filtered under vacuum with a cell harvester (Brandel, Gaithersburg, Md.). […] Radioactivity was measured by a liquid scintillation spectrophotometer. […]

Work on `CN(C)C(CCOc1cccc2ccccc12)c1ccc2c(c1)OCO2` (stereo not shown) [Example 23, N,N-Dimethyl-1-[3,4-(methylenedioxy)phenyl]-3-(1-naphthalenyloxy)propanamine oxalate] yielded an IC50 of 29 nM.
